# Source: publication PMC7819943, “Rice protein-binding microarrays: a tool to detect cis-acting elements near promoter regions in rice”
# The chains behind the UniProt entries cited, without tags or fusion partners.
# UniProt Q0JBA9, entry or part of it: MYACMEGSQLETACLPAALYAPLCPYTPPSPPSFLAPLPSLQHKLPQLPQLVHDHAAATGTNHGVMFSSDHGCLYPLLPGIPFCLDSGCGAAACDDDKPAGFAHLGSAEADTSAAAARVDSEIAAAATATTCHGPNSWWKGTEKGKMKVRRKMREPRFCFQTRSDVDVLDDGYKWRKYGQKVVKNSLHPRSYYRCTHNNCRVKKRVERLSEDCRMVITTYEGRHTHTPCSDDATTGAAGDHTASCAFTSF
# The other results are listed elsewhere or left out.
# Target: OsWRKY34 (Oryza sativa, UniProt Q0JBA9 1-250)
# Assay: protein-binding microarray (RPBM); PBS, 2% BSA, 51.3 ng/ul salmon testes DNA, 50 uM zinc acetate, 200 nM TF, 25 C, 1 h; high values mean tight binding
# Conditions: protein: recombinant; tags: N-terminal polyhistidine and DsRed monomer fusion (pET32a); label: CyDye5-dUTP incorporated in the synthesized complementary strand; 3' TTTTT single-stranded linker to array surface; dsDNA, one strand shown
# Method in brief: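 Transcription factors were made in E. coli BL21-CodonPlus as N-terminal fusions to a polyhistidine tag and DsRed, then purified on Ni–NTA. After primer extension with Cy5-dUTP and blocking with 2% BSA, a custom Agilent array was exposed for 1 h at 25 °C to 200 nM protein in PBS, 2% BSA, salmon testes DNA and 50 µM zinc acetate. Washed arrays were scanned on an Axon 4000B, and the binding signal is per-feature fluorescence intensity in arbitrary units.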
row,Sequence,binding signal
1,TACTGCCACACTTCGTCAGGAACCAGCACCGCCTCCTCGACGGAGTCACCTAGTGCAG,8110 fluorescence intensity (a.u.)
2,CAGGCACCCTCTCGCACTCTCCACCGATCCACCAACACCACGGAGTCACCTAGTGCAG,8830 fluorescence intensity (a.u.)
3,CCATCGCCGTCCAGTTAGTCTCCGTTAGTACTGTACAAATCGGAGTCACCTAGTGCAG,10000 fluorescence intensity (a.u.)
4,TGCTGTCTATGCTCTGCATTTTTTTATTTCCATTTAAGGTCGGAGTCACCTAGTGCAG,11700 fluorescence intensity (a.u.)
5,CGCCGTCGTCGCGCCCCGCGCCGCCCTCAATTGCCGACGACGGAGTCACCTAGTGCAG,9170 fluorescence intensity (a.u.)
6,ACTCGCTCACTCTCTCACTCTCACTGCCTCACCAACCAGTCGGAGTCACCTAGTGCAG,9800 fluorescence intensity (a.u.)
7,GCCCTGTGCTTTGCTCGCTCGCTGCTTTTCTCTTTCTTAACGGAGTCACCTAGTGCAG,10700 fluorescence intensity (a.u.)
8,GGGTGCTTTCTTTTCCAGTTACCTCCCACCTTAGGAACCCCGGAGTCACCTAGTGCAG,8060 fluorescence intensity (a.u.)
9,TGCTCGTGCCCCTCCGCCCATCACACTGATCCGCACCGGACGGAGTCACCTAGTGCAG,9480 fluorescence intensity (a.u.)
10,CTGCAGATTCATTGTTACTAGTCTTAGTCATACTTGTTACCGGAGTCACCTAGTGCAG,10900 fluorescence intensity (a.u.)
11,GCGTCCAGTCTGGAAGGACGAGGGTGGGCCAATTAGTTGCCGGAGTCACCTAGTGCAG,10300 fluorescence intensity (a.u.)
12,GGTTGGATAGCGCTTGTGGTGTGGGCAGGGTTTACACAGACGGAGTCACCTAGTGCAG,12500 fluorescence intensity (a.u.)
13,GCTCATCTCTCCGCGTGCTTCTTCTTCTTCTCTCTCTAAACGGAGTCACCTAGTGCAG,13000 fluorescence intensity (a.u.)
14,CCTTAATTCCATCTCCTCTCCGTTTTCTTGATTAAATCCTCGGAGTCACCTAGTGCAG,8430 fluorescence intensity (a.u.)
15,TCGAACCCGCTCCAAGTCCTGTACCTCGCCGTACGTCAGCCGGAGTCACCTAGTGCAG,9350 fluorescence intensity (a.u.)
16,GCCTCTGTCTCCGCCGGTGCCGCGACGGCGTTGGCCAACCCGGAGTCACCTAGTGCAG,8780 fluorescence intensity (a.u.)
17,CATTACTGTTTGCGGTTTCAGACTCTTACCAAACACCACCCGGAGTCACCTAGTGCAG,8720 fluorescence intensity (a.u.)
18,ATTATTGTTGTACAGTTCTTGCCTACAGTTCGGTTTTTCTCGGAGTCACCTAGTGCAG,19700 fluorescence intensity (a.u.)
19,ACGCGCGCCGCAACCTCCTCCGCTCGCTCTGCAACCTCGCCGGAGTCACCTAGTGCAG,9700 fluorescence intensity (a.u.)
20,GCCGCCGTCTCGCGCCGCCACCTCCGCCTCGCGCCGCCACCGGAGTCACCTAGTGCAG,9720 fluorescence intensity (a.u.)
21,CCAGGTGGCGGCTAGGGTTAGGGTTTTAGGGTGAACTCACCGGAGTCACCTAGTGCAG,8690 fluorescence intensity (a.u.)
22,TTTCTTTTCTCGGTGTCCGGTGTCCCTTGGTGTGTTGCTACGGAGTCACCTAGTGCAG,10400 fluorescence intensity (a.u.)
23,CCGCATATACTCTCTCTCTCTCTCTCTCTCTGCTTCTGGACGGAGTCACCTAGTGCAG,10500 fluorescence intensity (a.u.)

# A portion from the list above, for reference:
row,Sequence,binding signal
19,ACGCGCGCCGCAACCTCCTCCGCTCGCTCTGCAACCTCGCCGGAGTCACCTAGTGCAG,9700 fluorescence intensity (a.u.)
20,GCCGCCGTCTCGCGCCGCCACCTCCGCCTCGCGCCGCCACCGGAGTCACCTAGTGCAG,9720 fluorescence intensity (a.u.)
